Measurements from PMC5013526.
Results are given in words; binding and its absence hold for the method and conditions named. Binding seen in cells or lysates may run through a third protein. Here binding means that the protein was enriched with, or labelled near, the bait; the list need not be complete.

Protein sequences, listed by entry. Tags and fused reporters are not part of them. Lines headed by an entry give the natural chain unless they say otherwise; changes in a name come on top.
UniProt Q9QR71: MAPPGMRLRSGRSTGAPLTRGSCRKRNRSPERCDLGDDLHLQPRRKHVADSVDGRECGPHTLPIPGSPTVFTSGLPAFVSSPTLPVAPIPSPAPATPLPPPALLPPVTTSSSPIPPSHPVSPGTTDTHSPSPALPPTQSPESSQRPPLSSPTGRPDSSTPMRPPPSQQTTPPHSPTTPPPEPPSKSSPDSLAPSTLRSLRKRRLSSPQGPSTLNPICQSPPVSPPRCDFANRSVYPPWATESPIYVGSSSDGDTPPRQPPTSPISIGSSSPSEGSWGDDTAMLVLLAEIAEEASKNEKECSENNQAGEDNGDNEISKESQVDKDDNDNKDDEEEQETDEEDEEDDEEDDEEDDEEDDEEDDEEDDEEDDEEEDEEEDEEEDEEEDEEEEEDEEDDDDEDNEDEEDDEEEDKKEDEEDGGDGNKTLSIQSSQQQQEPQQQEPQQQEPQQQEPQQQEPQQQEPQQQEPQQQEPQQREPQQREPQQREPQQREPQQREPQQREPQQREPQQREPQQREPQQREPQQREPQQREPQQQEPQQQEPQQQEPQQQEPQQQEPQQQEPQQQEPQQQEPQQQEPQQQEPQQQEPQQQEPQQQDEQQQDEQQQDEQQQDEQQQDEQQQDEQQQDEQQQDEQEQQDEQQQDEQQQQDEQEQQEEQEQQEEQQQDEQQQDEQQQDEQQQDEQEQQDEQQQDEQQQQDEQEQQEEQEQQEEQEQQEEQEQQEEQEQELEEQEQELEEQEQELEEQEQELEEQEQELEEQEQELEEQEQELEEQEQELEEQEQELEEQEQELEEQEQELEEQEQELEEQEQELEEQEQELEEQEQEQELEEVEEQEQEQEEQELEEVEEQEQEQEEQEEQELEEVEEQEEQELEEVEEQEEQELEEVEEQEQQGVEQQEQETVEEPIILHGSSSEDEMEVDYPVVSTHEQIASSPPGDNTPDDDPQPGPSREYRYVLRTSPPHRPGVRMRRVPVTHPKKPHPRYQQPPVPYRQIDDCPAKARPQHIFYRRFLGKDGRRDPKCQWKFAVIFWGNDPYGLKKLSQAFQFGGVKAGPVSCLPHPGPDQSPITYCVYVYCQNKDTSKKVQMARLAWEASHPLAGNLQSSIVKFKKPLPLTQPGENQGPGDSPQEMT
UniProt Q68DK2: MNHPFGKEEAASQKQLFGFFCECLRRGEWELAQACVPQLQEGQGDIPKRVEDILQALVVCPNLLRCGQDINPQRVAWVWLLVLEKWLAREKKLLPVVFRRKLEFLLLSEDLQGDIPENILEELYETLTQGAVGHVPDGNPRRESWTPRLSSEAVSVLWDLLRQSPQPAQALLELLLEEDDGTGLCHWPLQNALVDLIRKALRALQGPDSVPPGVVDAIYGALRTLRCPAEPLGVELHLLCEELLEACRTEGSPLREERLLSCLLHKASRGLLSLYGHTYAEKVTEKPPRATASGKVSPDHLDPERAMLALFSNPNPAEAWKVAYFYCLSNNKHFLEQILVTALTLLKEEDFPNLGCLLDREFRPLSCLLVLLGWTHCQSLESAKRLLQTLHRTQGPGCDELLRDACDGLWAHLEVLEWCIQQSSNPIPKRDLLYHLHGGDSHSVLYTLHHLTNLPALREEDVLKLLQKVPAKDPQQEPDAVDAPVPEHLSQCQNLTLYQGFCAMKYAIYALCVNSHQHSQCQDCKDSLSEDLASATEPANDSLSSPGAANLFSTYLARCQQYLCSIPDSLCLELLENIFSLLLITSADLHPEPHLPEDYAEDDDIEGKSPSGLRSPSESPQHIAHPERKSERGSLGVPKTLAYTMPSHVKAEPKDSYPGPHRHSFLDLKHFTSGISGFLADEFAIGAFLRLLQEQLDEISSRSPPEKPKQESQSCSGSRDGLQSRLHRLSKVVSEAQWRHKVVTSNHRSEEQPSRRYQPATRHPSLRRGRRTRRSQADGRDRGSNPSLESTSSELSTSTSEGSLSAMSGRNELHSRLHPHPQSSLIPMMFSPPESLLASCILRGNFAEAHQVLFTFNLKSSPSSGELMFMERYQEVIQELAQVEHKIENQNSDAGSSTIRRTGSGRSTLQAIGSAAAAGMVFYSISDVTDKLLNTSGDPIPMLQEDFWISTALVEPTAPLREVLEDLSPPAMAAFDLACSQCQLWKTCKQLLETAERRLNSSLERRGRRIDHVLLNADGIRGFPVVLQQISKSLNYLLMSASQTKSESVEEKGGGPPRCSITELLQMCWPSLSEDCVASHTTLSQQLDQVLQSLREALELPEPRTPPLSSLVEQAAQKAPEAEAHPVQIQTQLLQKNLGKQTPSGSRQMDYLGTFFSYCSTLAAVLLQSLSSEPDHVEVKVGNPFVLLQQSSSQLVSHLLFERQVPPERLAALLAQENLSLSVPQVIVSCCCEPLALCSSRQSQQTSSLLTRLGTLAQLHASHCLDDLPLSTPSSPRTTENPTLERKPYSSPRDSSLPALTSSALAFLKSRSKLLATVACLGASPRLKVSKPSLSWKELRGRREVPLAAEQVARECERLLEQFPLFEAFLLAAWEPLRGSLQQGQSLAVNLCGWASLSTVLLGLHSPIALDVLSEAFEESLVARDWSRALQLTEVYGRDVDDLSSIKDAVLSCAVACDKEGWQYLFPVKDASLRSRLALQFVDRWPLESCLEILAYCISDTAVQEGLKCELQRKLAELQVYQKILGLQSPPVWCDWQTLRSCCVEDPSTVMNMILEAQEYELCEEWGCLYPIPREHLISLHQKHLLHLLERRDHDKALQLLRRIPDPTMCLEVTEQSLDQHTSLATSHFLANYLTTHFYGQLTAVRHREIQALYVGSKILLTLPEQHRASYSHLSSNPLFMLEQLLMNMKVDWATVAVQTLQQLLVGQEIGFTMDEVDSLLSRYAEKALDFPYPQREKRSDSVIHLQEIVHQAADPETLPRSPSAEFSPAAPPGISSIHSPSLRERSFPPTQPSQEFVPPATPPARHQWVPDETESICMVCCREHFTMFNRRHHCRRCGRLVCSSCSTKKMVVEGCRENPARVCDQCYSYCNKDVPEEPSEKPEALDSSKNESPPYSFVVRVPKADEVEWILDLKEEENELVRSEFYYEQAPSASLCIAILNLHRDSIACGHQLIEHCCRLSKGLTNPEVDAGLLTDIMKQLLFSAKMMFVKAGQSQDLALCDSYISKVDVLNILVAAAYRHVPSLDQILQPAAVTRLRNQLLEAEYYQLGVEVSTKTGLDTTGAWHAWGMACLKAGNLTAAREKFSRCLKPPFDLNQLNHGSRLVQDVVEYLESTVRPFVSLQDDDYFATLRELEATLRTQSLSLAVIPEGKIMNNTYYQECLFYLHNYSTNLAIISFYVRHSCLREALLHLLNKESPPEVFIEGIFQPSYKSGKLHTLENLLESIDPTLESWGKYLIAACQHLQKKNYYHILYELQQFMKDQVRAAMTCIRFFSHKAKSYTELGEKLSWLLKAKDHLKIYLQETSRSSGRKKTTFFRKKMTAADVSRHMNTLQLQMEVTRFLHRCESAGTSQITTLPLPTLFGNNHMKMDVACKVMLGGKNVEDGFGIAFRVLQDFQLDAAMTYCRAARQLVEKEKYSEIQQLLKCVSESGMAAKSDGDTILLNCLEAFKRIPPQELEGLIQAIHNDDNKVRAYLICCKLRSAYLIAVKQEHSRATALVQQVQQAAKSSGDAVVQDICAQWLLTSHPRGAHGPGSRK
UniProt P07478: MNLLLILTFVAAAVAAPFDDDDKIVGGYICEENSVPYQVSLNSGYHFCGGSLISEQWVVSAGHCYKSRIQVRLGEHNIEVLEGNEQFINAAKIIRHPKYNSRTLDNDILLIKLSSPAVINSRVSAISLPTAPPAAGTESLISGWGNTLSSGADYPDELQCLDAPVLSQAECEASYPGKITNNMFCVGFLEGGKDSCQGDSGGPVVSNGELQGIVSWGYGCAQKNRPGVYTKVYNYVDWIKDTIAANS
UniProt P33241: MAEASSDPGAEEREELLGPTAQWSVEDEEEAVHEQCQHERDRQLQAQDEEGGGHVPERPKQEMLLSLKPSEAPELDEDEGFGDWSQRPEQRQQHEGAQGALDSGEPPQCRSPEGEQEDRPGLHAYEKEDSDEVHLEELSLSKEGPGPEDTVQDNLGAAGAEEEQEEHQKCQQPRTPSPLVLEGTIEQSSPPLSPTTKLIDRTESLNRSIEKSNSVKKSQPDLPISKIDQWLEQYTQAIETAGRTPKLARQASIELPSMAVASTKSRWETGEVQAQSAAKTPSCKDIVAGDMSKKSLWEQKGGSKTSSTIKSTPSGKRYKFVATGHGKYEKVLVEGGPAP
UniProt O43707: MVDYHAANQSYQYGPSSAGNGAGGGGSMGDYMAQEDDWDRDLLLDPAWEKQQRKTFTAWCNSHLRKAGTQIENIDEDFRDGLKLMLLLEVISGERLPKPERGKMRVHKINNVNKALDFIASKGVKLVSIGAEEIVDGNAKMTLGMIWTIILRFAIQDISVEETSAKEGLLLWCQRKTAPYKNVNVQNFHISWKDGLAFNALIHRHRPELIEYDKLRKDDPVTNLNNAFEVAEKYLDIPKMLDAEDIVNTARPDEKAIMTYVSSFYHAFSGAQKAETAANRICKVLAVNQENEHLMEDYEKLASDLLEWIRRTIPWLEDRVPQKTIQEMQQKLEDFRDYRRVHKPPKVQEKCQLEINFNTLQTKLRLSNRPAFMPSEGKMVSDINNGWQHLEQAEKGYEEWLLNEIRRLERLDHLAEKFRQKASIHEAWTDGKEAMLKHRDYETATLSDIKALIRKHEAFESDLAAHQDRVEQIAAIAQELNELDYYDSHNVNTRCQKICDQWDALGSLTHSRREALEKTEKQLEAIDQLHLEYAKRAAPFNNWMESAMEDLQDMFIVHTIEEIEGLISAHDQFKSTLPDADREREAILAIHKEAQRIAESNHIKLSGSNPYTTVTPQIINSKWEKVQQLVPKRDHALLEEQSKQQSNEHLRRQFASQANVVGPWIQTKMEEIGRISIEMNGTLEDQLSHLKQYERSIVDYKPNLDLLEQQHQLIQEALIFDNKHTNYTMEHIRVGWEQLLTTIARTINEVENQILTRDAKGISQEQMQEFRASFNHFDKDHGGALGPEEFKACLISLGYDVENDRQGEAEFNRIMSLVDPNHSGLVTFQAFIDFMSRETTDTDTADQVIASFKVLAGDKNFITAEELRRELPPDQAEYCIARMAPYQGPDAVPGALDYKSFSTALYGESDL
UniProt P47756: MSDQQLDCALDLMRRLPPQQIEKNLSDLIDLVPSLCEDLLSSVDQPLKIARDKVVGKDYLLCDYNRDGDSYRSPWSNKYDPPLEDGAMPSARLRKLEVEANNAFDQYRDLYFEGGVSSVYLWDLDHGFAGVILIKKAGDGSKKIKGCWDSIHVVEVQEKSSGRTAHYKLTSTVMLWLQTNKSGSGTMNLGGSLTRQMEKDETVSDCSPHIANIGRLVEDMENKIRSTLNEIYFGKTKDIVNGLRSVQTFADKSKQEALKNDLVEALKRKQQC
UniProt P60660: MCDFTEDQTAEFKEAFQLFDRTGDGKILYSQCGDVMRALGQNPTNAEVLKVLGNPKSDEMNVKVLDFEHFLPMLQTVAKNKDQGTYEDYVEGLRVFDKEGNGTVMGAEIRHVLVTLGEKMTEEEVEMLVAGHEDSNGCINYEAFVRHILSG
UniProt P08670: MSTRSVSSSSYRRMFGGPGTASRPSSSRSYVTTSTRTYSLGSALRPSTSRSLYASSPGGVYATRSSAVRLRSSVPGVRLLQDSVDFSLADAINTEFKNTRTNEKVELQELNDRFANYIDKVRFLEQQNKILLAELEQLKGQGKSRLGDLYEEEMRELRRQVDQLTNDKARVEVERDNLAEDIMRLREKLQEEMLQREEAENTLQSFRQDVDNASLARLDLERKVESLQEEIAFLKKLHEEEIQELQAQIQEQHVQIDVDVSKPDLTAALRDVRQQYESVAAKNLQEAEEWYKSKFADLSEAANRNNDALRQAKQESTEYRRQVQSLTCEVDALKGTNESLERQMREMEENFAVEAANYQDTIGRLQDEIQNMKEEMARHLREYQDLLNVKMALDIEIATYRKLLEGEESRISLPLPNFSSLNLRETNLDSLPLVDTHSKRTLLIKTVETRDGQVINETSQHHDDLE

B1: Serine/threonine-protein phosphatase 4 regulatory subunit 4 isoform 1 (protein, UniProt Q6NUP7 1-873)
chain: MHPPPPAAAMDFSQNSLFGYMEDLQELTIIERPVRRSLKTPEEIERLTVDEDLSDIERAVYLLSAGQDVQGTSVIANLPFLMRQNPTETLRRVLPKVREALHVAGVEMQLTAAMSFLTILQDESVSIHAYTHSFLQVILLHLEHRDTGVSNAWLETLLSVIEVLPKETLRHEILNPLVSKAQLSQTVQSRLVSCKILGKLTNKFDAHTIKREILPLVKSLCQDVEYEVRSCMCRQLENIAQGIGTELTKSVVLPELIELSRDEGSSVRLAAFETLVNLLDIFDTDDRSQTILPLVKSFCEKSFKADESILISLSFHLGKLCHGLYGIFTPDQHLRFLEFYKKLCTLGLQQENGHNENQIPPQILEQEKKYISVRKNCAYNFPAMIVFVDPKNFHMELYSTFFCLCHDPEVPVRYTIAICFYEVSKLLNSGVYLIHKELITLLQDESLEVLDALIDHLPEILELMSTGGESSVQENKLSSLPDLIPALTAAEQRAAASLKWRTHEKLLQKYACLPHVISSDQIYYRFLQRMFTIMMTNNVLPVQKAASRTLCIFLRYNRKQEQRHEVIQKLIEQLGQGKSYWNRLRFLDTCEFIIEIFSKSFFCKYFFLPAIELTHDPVANVRMKLCYLLPKVKSTLKIPADKHLLQQLEMCVRKLLCQEKDKDVLAIVKRTVLELDRMEMSMDAFQKKFYEKDLLDQEKEREELLLLEMEQLEKEKQQNDGRPMSDKMFEKKRRDTKTPTQSLPKNIPISVPGPSSVTPSTSKEIKKSKLIRSQSFNNQAFHAKYGNLEKCASKSSTTGYTTSVSGLGKTSVLSLADDSFRTRNASSVPSSFSPNTPLPSTSRGTGNSVDPKSSGSKDTQPRKATLKSRKSNP
B2: Regulatory factor X-associated protein (protein, UniProt O00287 1-272)
chain: MEAQGVAEGAGPGAASGVPHPAALAPAAAPTLAPASVAAAASQFTLLVMQPCAGQDEAAAPGGSVGAGKPVRYLCEGAGDGEEEAGEDEADLLDTSDPPGGGESAASLEDLEDEETHSGGEGSSGGARRRGSGGGSMSKTCTYEGCSETTSQVAKQRKPWMCKKHRNKMYKDKYKKKKSDQALNCGGTASTGSAGNVKLEESADNILSIVKQRTGSFGDRPARPTLLEQVLNQKRLSLLRSPEVVQFLQKQQQLLNQQVLEQRQQQFPGTSM
B3: EF-hand domain-containing protein D2 (protein, UniProt Q96C19 1-240)
chain: MATDELATKLSRRLQMEGEGGGETPEQPGLNGAAAAAAGAPDEAAEALGSADCELSAKLLRRADLNQGIGEPQSPSRRVFNPYTEFKEFSRKQIKDMEKMFKQYDAGRDGFIDLMELKLMMEKLGAPQTHLGLKNMIKEVDEDFDSKLSFREFLLIFRKAAAGELQEDSGLCVLARLSEIDVSSEGVKGAKSFFEAKVQAINVSSRFEEEIKAEQEERKKQAEEMKQRKAAFKELQSTFK
B4: ZNF483 protein (protein, UniProt Q8TF39 1-744)
chain: MQAVVPLNKMTAISPEPQTLASTEQNEVPRVVTSGEQEAILRGNAADAESFRQRFRWFCYSEVAGPRKALSQLWELCNQWLRPDIHTKEQILELLVFEQFLTILPGEIRIWVKSQHPESSEEVVTLIEDLTQMLEEKDPVSQDSTVSQEENSKEDKMVTVCPNTESCESITLKDVAVNFSRGEWKKLEPFQKELYKEVLLENLRNLEFLDFPVSKLELISQLKWVELPWLLEEVSKSSRLDESALDKIIERCLRDDDHGLMEESQQYCGSSEEDHGNQGNSKGRVAQNKTLGSGSRGKKFDPDKSPFGHNFKETSDLIKHLRVYLRKKSRRYNESKKPFSFHSDLVLNRKEKTAGEKSRKSNDGGKVLSHSSALTEHQKRQKIHLGDRSQKCSKCGIIFIRRSTLSRRKTPMCEKCRKDSCQEAALNKDEGNESGEKTHKCSKCGKAFGYSASLTKHRRIHTGEKPYMCNECGKAFSDSSSLTPHHRTHSGEKPFKCDDCGKGFTLSAHLIKHQRIHTGEKPYKCKDCGRPFSDSSSLIQHQRIHTGEKPYTCSNCGKSFSHSSSLSKHQRIHTGEKPYKCGECGKAFRQNSCLTRHQRIHTGEKPYLCNDCGMTFSHFTSVIYHQRLHSGEKPYKCNQCEKAFPTHSLLSRHQRIHTGVKPYKCKECGKSFSQSSSLNEHHRIHTGEKPYECNYCGATFSRSSILVEHLKIHTGRREYECNECEKTFKSNSGLIRHRGFHSAE
B5: Regulator of microtubule dynamics protein 2 (protein, UniProt Q96LZ7 1-410)
chain: MPYSTNKELILGIMVGTAGISLLLLWYHKVRKPGIAMKLPEFLSLGNTFNSITLQDEIHDDQGTTVIFQERQLQILEKLNELLTNMEELKEEIRFLKEAIPKLEEYIQDELGGKITVHKISPQHRARKRRLPTIQSSATSNSSEEAESEGGYITANTDTEEQSFPVPKAFNTRVEELNLDVLLQKVDHLRMSESGKSESFELLRDHKEKFRDEIEFMWRFARAYGDMYELSTNTQEKKHYANIGKTLSERAINRAPMNGHCHLWYAVLCGYVSEFEGLQNKINYGHLFKEHLDIAIKLLPEEPFLYYLKGRYCYTVSKLSWIEKKMAATLFGKIPSSTVQEALHNFLKAEELCPGYSNPNYMYLAKCYTDLEENQNALKFCNLALLLPTVTKEDKEAQKEMQKIMTSLKR

molecular target: Latency-associated nuclear antigen (LANA), endogenous in KSHV-positive cells (KSHV (human herpesvirus 8)) (UniProt Q9QR71); experiment: affinity purification with mass spectrometry; BCBL-1 RIPA lysate; immunoprecipitation with anti-LANA against control IgG; Cy3/Cy5 labelling, 2D-DIGE; unique spots identified by MALDI-TOF MS and MS/MS

Row | Molecule | binding
1 | ZFYVE26 protein (from UniProt Q68DK2 1-2539) | binds
2 | Protease serine 2 preproprotein (from UniProt P07478) | binds
3 | Lymphocyte-specific protein 1 isoform 1 (from UniProt P33241 1-339) | binds
4 | Brefeldin A-inhibited guanine nucleotide-exchange protein 2 (from UniProt Q9Y6D5 1-1785) | binds
5 | nonerythroid alpha-spectrin (from UniProt Q13813 1-2472) | binds
6 | Alpha-actinin-4 (from UniProt O43707 1-911) | binds
7 | Capping protein (actin filament) muscle Z-line, beta (from UniProt P47756 1-272) | binds
8 | MYL6 protein (from UniProt P60660 1-151) | binds
9 | vimentin (from UniProt P08670 1-466) | binds
10 | B1 | binds
11 | B2 | binds
12 | B3 | binds
13 | B4 | binds
14 | B5 | binds
